The match of structure and compound is tentative.
Columns and labels:
BTK wild-type kinase = BTK wild-type kinase (Homo sapiens (Human), UniProt Q06187); experiment: BTK kinase activity inhibition test in vitro (Caliper EZ Reader); type: biochemical; details: read-out: BTK IC50
[1] = Pharmacokinetic test, oral, SD rats; details: oral 10 mg/kg, plasma
[2] = Blood-brain barrier permeability test, SD rats (plasma, cerebrospinal fluid, brain tissue); details: oral single dose 10 mg/kg

Sequences of proteins named here, by UniProt entry; tags and fusion partners are left off.
UniProt Q06187, whole entry: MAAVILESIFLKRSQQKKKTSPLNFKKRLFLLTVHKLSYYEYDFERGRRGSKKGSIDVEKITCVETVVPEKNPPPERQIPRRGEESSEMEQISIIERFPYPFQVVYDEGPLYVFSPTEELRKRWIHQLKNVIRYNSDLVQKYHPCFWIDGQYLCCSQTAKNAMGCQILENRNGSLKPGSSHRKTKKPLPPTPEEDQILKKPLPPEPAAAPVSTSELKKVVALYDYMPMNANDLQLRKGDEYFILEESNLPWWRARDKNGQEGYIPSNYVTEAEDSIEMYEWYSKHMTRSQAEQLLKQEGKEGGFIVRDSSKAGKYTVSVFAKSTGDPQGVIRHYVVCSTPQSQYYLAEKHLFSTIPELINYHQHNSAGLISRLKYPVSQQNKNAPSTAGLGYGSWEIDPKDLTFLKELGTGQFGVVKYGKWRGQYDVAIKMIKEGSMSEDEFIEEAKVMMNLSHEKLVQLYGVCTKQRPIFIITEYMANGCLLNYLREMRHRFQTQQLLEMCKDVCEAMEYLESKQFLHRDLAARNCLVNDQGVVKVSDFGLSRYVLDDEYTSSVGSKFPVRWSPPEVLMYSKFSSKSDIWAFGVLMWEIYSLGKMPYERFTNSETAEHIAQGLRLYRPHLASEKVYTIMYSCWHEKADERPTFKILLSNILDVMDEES

Question: Which results are given for `Nc1nccn2c(C34CCC(CO)(CC3)OC4)nc(-c3ccc(C(F)(F)c4ccccc4F)cc3)c12`?
Answer: IC50 (BTK wild-type kinase): 20 to 100 nM; Cl [1]: 21.03 mL/min/kg; Brain tissue/plasma ([2]; 1 h): 39%; Cerebrospinal fluid/plasma ([2]; 1 h): 3.6%; Drug concentration in brain tissue ([2]; 1 h): 643 ng/g; Drug concentration in cerebrospinal fluid ([2]; 1 h): 59.7 ng/mL; Plasma drug concentration ([2]; 1 h): 1652 ng/mL; Brain tissue/plasma ([2]; 4 h): 53%; Cerebrospinal fluid/plasma ([2]; 4 h): 4.4%; Drug concentration in brain tissue ([2]; 4 h): 910 ng/g; Drug concentration in cerebrospinal fluid ([2]; 4 h): 74.3 ng/mL; Plasma drug concentration ([2]; 4 h): 1706 ng/mL
